Source: PMC12040169 (PLOS Biology, 2025)
The other results are listed elsewhere or left out.

System: T1, CTL2-GFP (C. trachomatis L2/434/Bu, GFP-expressing)
T1 construct: L2/434/Bu, GFP-expressing
Set-up: species or system HeLa; Intracellular C. trachomatis growth in HeLa cells, bulk GFP fluorescence relative to DMSO
Settings: bulk GFP, single well; 28.5 h, 10 µM; inhibitor

SMILES	% of control remaining [%]
COc1cc(C(=O)c2ccc(Cl)cc2)cc(Br)c1OCCN1CCOCC1 [CBK010131C]	94.7584
COc1cc(C)nc(NC(=O)COc2ccc(Cl)cc2C)n1 [CBK266681]	111.183
N#Cc1ccc(C(=O)Nc2ccc(N3CCNCC3)nc2)cc1 [CBK029435T]	120.794
CC(C)CC1CC(=O)Nc2c1c(=O)[nH]n2C(C)C (stereo not shown) [CBK287924]	122.331
C#CCNS(=O)(=O)c1cccc(C(=O)NCC2CCCN(C(C)C)C2)c1 (stereo not shown) [CBK305981]	102.135
Cn1ncnc1CNc1ccc(S(=O)(=O)N2CCCCCC2)cc1 [CBK305278]	85.4007
CCOC(=O)N1CCC(NS(=O)(=O)c2c(C)noc2C)CC1 [CBK045465]	130.255
CC(C)n1c(COc2ccc(OC(F)(F)F)cc2)n[nH]c1=S [CBK012989]	96.6342
Cc1cc(C(=O)NCCc2ccc(S(N)(=O)=O)cc2)no1 [CBK268130]	114.229
O=C(O)c1ccc(S(=O)(=O)NCc2ccc3c(c2)OCO3)cc1 [CBK262360]	100
O=C(Cn1cccc(C(=O)NCc2ccccc2)c1=O)Nc1cc(F)ccc1N1CCCC1 [CBK286041]	120.531
Cc1cccnc1Nc1nc(-c2sc(N)nc2C)cs1 [CBK267147]	187.528
O=c1cnnc(Nc2cccc(Cl)c2Cl)[nH]1 [CBK287897]	100.174
Cc1cc2c(o1)c1cnn(CC(=O)N3CCCC3)c(=O)c1n2C(C)C [CBK284232]	107.578
CC(C)(C)C(=O)Nc1nnc(SCC(=O)N2CCc3ccccc32)s1 [CBK004889]	141.651
NC(=O)c1c(NC(=S)NC(NC(=O)c2ccccc2)C(Cl)(Cl)Cl)sc2c1CCCC2 (stereo not shown) [CBK261048]	68.4307
COc1cnc(-c2cnn(C)c2)c(NC(=O)Cc2ccccc2)n1 [CBK145327]	125.971
CCOc1ccc(-c2nn(-c3ccccc3)cc2/C=C2\SC(=S)N(CC(=O)O)C2=O)cc1F [CBK265647]	100
O=C(c1cnn2cccnc12)N1CCc2[nH]c3ccccc3c2C1 [CBK281874]	97.0662
COc1cccc2sc(NC(=O)Cc3ccccc3)nc12 [CBK149284]	104.053
c1ccc(Oc2ccc(Nc3cc(-c4ccc(N5CCOCC5)cc4)ncn3)cc2)cc1 [CBK090923]	98.9341
Cn1c(-c2nonc2N)nc2ccccc21 [CBK062642]	91.4595

Structural class, the compounds so far containing a COOH group.
SMILES	% of control remaining [%]
O=C(O)c1ccc(S(=O)(=O)NCc2ccc3c(c2)OCO3)cc1 [CBK262360]	100
CCOc1ccc(-c2nn(-c3ccccc3)cc2/C=C2\SC(=S)N(CC(=O)O)C2=O)cc1F [CBK265647]	100
